Source: publication PMC5688144, “Assay interference and off-target liabilities of reported histone acetyltransferase inhibitors” (Nature Communications, 2017)

What was measured:
[1] = HRP-PR redox activity counter-screen (H2O2 production); settings: 250 μM compound; for HRP-PR redox counter-screen, - DTT: 0 mM DTT; for HRP-PR redox counter-screen, + DTT: 1 mM DTT
UPLC-MS GSH adduct assay = format: physicochemical; settings: compound-GSH adduct detection; 5 eq GSH, pH 7.0, 37 °C
UPLC-MS CoA adduct assay = format: physicochemical; settings: compound-CoA adduct detection; 5 eq CoA, pH 7.0

Compound	HRP-PR redox counter-screen, - DTT [1]	HRP-PR redox counter-screen, + DTT [1]	UPLC-MS GSH counter-screen (UPLC-MS GSH adduct assay)	UPLC-MS CoA counter-screen (UPLC-MS CoA adduct assay)	H2O2 production in situ (horseradish peroxidase-phenol red assay) [1]
COc1ccc(S(=O)(=O)ON=C2C=C(C)C(=O)C(C)=C2)cc1 [Compound 5, L002]	Negative	Negative	Positive	Positive	
N#Cc1c2ccc(N)cc2nc2cc(N)ccc12 [Compound 22, CTx-1]		Negative	Negative	Negative	
CCCCCCCc1ccc(CCc2cccc(O)c2C(=O)O)cc1 [Compound 15, MG 149]			Negative	Negative	
CCCCCCCCCCCC1=C(O)C(=O)C=C(O)C1=O [Compound 9, Embelin]	Negative	Negative	Positive	Positive	
Cc1cc2c(C(C)C)c(O)c(O)c(C=O)c2c(O)c1-c1c(C)cc2c(C(C)C)c(O)c(O)c(C=O)c2c1O [Compound 16, Gossypol]	Positive (Redox-active compounds were defined as compounds with a mean absorbance >0.2)	Positive (Redox-active compounds were defined as compounds with a mean absorbance >0.2)			appreciable levels of H2O2
Plumbagin [Compound 8]	Negative	Positive (Redox-active compounds were defined as compounds with a mean absorbance >0.2)	Positive	Positive	appreciable levels of H2O2
Clc1ccc(-c2csc(NN=C3CCCC3)n2)cc1 [Compound 7, CPTH2]	Negative	Negative	Indeterminate	Indeterminate	
COc1cc(/C=C/C(=O)CC(=O)/C=C/c2ccc(O)c(OC)c2)ccc1O [Compound 11, Curcumin]			Positive	Positive	
CC1=NN(c2ccc(C(=O)O)cc2)C(=O)/C1=C/c1ccc(-c2cc(C)c(C)cc2[N+](=O)[O-])o1 [Compound 1, C646]	Negative	Negative	Positive	Positive	
O=C1/C(=C/c2ccc(O)c(Br)c2)CCC/C1=C\c1ccc(O)c(Br)c1 [Compound 12, HAT inhibitor II]	Negative	Negative	Negative	Negative	
O=C(O[C@@H]1Cc2c(O)cc(O)cc2O[C@@H]1c1cc(O)c(O)c(O)c1)c1cc(O)c(O)c(O)c1 [Compound 10, (-)-Epigallocatechin gallate]			Positive	Negative	
Garcinol [Compound 13]	Negative	Negative	Negative	Negative	
CCCC1(c2ccccc2)NC(=O)N(CC(=O)N(C)Cc2c(F)cccc2Cl)C1=O (centres unmarked) [Compound 21, N-[(2-chloro-6-fluorophenyl)methyl]-2-(2,5-dioxo-4-phenyl-4-propylimidazolidin-1-yl)-N-methylacetamide]	Negative	Negative	Negative	Negative	
Cl.Cl.O=C(O)Cn1nnc(-c2ccc(CN(CCCCOc3ccc(CN4CCCC4)cc3)CCc3ccccc3)cc2)n1 [Compound 20, TH1834]	Negative	Negative	Negative	Negative	
CC(=O)N[C@H](CCCCNC(=O)CSCCNC(=O)CCNC(=O)C(O)C(C)(C)COP(=O)(O)OP(=O)(O)OC[C@H]1O[C@@H](n2cnc3c(N)ncnc32)[C@H](O)[C@@H]1OP(=O)(O)O)C(N)=O (some centres unmarked) [Compound 23, Lys-CoA]	Negative	Negative			
O=c1c2cccnc2sn1Cc1ccc(C(F)(F)F)cc1 [Compound 3, PU141]	Negative	Negative	Positive	Positive	
Cc1cc(O)cc(C)c1C=C1C(=O)N(Cc2ccccc2)C(=O)N(Cc2ccccc2)C1=O [Compound 4, EML425]			negative	Negative	
C=C1C(=O)O[C@H](CCC)[C@H]1C(=O)O [Compound 6, MB-3]	Negative	Negative	Positive	Positive	
CCCCCCCCCCCCCCCc1cccc(O)c1C(=O)O [Compound 14, Anacardic acid]	Negative	Negative	Negative	Negative	
CCCCCCCCCCCCCCC=C(C(=O)OCC)C(=O)OCC [Compound 19, LoCAM]	Negative	Negative	Negative	Negative	
COc1cc(/C=C/c2cc(/C=C/c3ccc(O)c(OC)c3)n(-c3ccc(C(=O)[O-])cc3)n2)ccc1O.[Na+] [Compound 17, CTK7A]	Negative	Negative	Negative	Negative	
COc1ccc(/C(Cl)=C(/C=O)c2ccc(OC)cc2)cc1 [Compound 18, Windorphen]	Negative	Negative	positive	Negative	
